One may read the AC50 as the midpoint of the concentration-response curve, whichever way the signal moves.

The nature of this test: qHTS Assay to Find Inhibitors of Chronic Active B-Cell Receptor Signaling. The settings on record: ABC-DLBCL IkBa-CBG/CBR reporter, luminescence ratio (green luciferase fused to IkBa over red control in TMD8 lymphoma cells), 4 h. The text has this: NIH Molecular Libraries Probe Production Network [MLPCN] NIH Chemical Genomics Center [NCGC] MLPCN Grant: 1 R03 DA031086-01A1 PI Name: Dr. R. Eric Davis NCGC Assay Overview: Diffuse large B-cell lymphoma (DLBCL) is the most common category of non-Hodgkin lymphoma, with ~20,000 new cases per year in the United States. DLBCL should be regarded as a collection of different neoplasms. Microarray gene expression analysis has defined two principal types of DLBCL, named for their similarity to normal B cell stages or activation states: a germinal center B-cell (GCB) type, and an activated B-cell (ABC) type. In ABC-DLBCL, a constitutive high-level activity of the NF-kappaB family of transcription factors has been observed (1) and NF-kappaB target genes are more highly expressed in ABC primary tumors than in GCB tumors. Functional studies have shown a constitutive high-level activity of the IkappaB (inhibitor of kappa-B) kinase (IKK) complex. […] Further analysis of DLBCL primary tumors for NF-kappaB target gene expression imply that although CARD11 is required for constitutive IKK activity in all ABC-DLBCL lines, mutations in CARD11 may be the root cause of IKK activation only in lines or tumors with such mutations. In other words, CARD11 mutations may explain NF-kappaB activation in only 10% of ABC-DLBCL cases. […] This process has been termed 'chronic active BCR signaling' (CABS). The goal of this screen is to find small-molecule inhibitors of the CABS pathway found in ABC-DLBCL lines using a cell-based assay that measures IkappaBalpa stability, which has already been extensively validated in the OCI-Ly3 line (PubChem AID:445; REF: 4). […] The assay uses green (CBG68) and red (CBR) emitting beetle luciferases [Chroma-GloTM developed by Promega Corp.] where the green luciferase is fused to IkappaBalpha and the red luciferase is present in its native state. Both luciferase genes are stably present in the TMD8 human ABC DLBCL cell line, but their expression is under the control of tetracycline-inducible promoters. Following the addition of doxycycline to induce expression of the luciferases, the green luminescence in control cultures rises only slowly because the CBG fusion partner IkappaBalpha is targeted by IKK activity for rapid degradation. In contrast, green luminescence rises rapidly in the presence of proteasome inhibitors or IKK inhibitors. The rise in red luminescence of CBR is not affected by proteasome or IKK inhibitors, and serves as normalization for cell number and nonspecific effects. Compounds were screened as a concentration-titration series that ranged from 46 uM to 3 nM.
NCGC Assay Protocol Summary: Cells were seeded in 1536-well plates at 5000 cells/4uL in IMDM medium containing 0.5% FBS, w/o phenol red, 1% penicillin/streptomycin. Then, 23 nL of compounds or DMSO were delivered to each well using a pin tool. One uL 20ng/ml doxycycline was then dispensed into white solid 1536-well plates and the plates were incubated at 37C/5% C02 in a cell incubator for 4 hrs. Then 4 uL luminescent substrate mix (in-house prepared: 150 mM Tris-Cl, pH 7.6, 3 mM MgCl2, 1% Triton X-100, 5 mM DTT, 0.2 mM CoA, 0.15 mM ATP, 5 mM D-luciferin, final concentrations) was added to each well. The plate was incubated at r.t. for 10-15 min. The plates were measured on a ViewLux plate reader for green luminescence (540/20 nm filter) and red luminescence (618/8 nm filter). The green and red luminescent signals were corrected for red and green luminescence filter overlap using previously determined filter calibration constants (determined using the procedure outlined in the Promega Technical Manual; REF 4). The %Activity was determined from the ratio of corrected green/red luminescent values. MG132 were used as control. […] Red luminescent %Activity was normalized to the difference between red luminesence in basal cells (0%Activity) and zero luminescence (-100% Activity). […]
In general terms: In qHTS, concentration-response curves come from the screen itself.

The mark [1] stands for this setting: measured here: CBR red luminescence, cell number.

This is one part of the list. Further columns of the screen follow, without active or inactive calls. The list favours compounds with an active or inconclusive main result. The note in brackets gives the kind of curve behind each potency; many fits are weak.

On to `O=C(Nc1ccc(F)cc1F)c1ccc2c(c1)OCCO2`, for which the AC50 under setting [1] was 8.91 µM [falling, partial curve].
`CCc1ccc(OCC(=O)Nc2ccc(S(=O)(=O)N3CCCC3)cc2)c(Br)c1`: under setting [1], the AC50 was 0.082 µM [rising, full curve, poor fit].
For `O=C1/C(=C/c2cccs2)N=C(c2cccs2)N1Nc1ccccc1`, under setting [1], the AC50 is 13 µM [rising, partial curve, poor fit].
On the same count and under the same terms, in the case of `O=C(Nc1ccc2nc(-c3ccco3)c(-c3ccco3)nc2c1)N1CCN(c2ccccn2)CC1` it was 14.6 µM [falling, partial curve, poor fit]; in that of `O=S(=O)(NC1CCCC1)c1ccc(S(=O)(=O)N2CCc3ccccc32)cc1`, 0.731 µM [falling, partial curve, poor fit]; in that of `O=C(NC(NC1CCS(=O)(=O)C1)C(=O)c1cccs1)c1ccccc1` (stereo not drawn), 6.51 µM [falling, single point].
Consider `COc1cccc(N(CC(=O)NC(C)c2ccccc2)S(C)(=O)=O)c1` (stereo not drawn), for which the AC50 under setting [1] was 0.794 µM [rising, full curve, poor fit].
For `O=C(O)CCCC(=O)Nc1nc(-c2ccc(F)cc2)cs1`, the AC50 under setting [1] was 0.206 µM [falling, full curve].
In the case of `COCc1nnc(NC(=O)CCC2CCCCC2)s1`, under setting [1], the half-maximal activity concentration (AC50) is 16.4 µM [rising, partial curve, poor fit].
Consider `Cc1ccc(CNC(=O)c2cc(=O)c3ccccc3o2)cc1`, for which the AC50 under setting [1] was 0.316 µM [rising, full curve, poor fit].
For `Cc1ccc(NC(=O)CSc2nc3[nH]ncc3c(=O)[nH]2)cc1`, under setting [1], the AC50 was 7.08 µM [falling, partial curve, poor fit].
On the same count and under the same terms, the figure for `CN1C(=O)NC(c2ccccc2)C2=C1CN(c1cccc(C(F)(F)F)c1)C2=O` (stereo not drawn) is 35.5 µM [falling, single point]; for `O=C(NNS(=O)(=O)c1ccc([N+](=O)[O-])cc1)C(=O)Nc1cccc(C(=O)O)c1` it is 12.6 µM [falling, partial curve, poor fit]; for `C=CCOc1nc2c(c(=O)n(C)c(=O)n2C)n1C` it is 6.51 µM [falling, single point].
The same measure, in the same setting: in the case of `Cc1ccc(-n2c(O)c(/C=N/Nc3ccc(S(=O)(=O)N4CCOCC4)cc3[N+](=O)[O-])c3ccccc3c2=O)c(C)c1` it was 29.1 µM [falling, single point].
For `Cn1c(N)c(C(=O)COC(=O)COc2ccc(C#N)cc2)c(=O)n(C)c1=O`, the AC50 under setting [1] is 0.794 µM [falling, partial curve].
Turning to `CCOC(=O)N/C(N)=N/c1nc2ccccc2s1`, under setting [1], the AC50 is 13 µM [falling, partial curve].
As for `Oc1oc(-c2ccccc2)nc1/C=N/c1nccs1`, the AC50 under setting [1] was 16.4 µM [falling, partial curve].
As for `O=C(c1ccco1)N1CCN(C(=O)N2c3ccccc3Sc3ccccc32)CC1`, the AC50 is 6.51 µM [rising, partial curve] under setting [1] and 5.17 µM [falling, partial curve] (measured here: IkBa-CBG green luminescence).
As to `COc1ccc(NC(=O)c2cccc(S(=O)(=O)N(C)c3ccccc3)c2)cn1`, the AC50 under setting [1] was 32.6 µM [falling, partial curve, poor fit].
`COc1ccc(OC)c(NC(=O)COC(=O)c2c3c(nc4ccccc24)CCCC3)c1`: under setting [1], the AC50 is 23.1 µM [falling, partial curve, poor fit].
`COc1ccc(CCCC(=O)Nc2ccc(F)cc2)cc1`: the AC50 under setting [1] was 29.1 µM [falling, partial curve, poor fit].
On the same count and under the same terms, in the case of `N#Cc1cc(-c2ccccc2)nn1-c1ccccc1` it was 11.6 µM [rising, partial curve].
Same read-out and setting: the figure for `COc1ccccc1-n1cnnc1SCC(=O)Nc1cc(C)on1` is 1 µM [falling, partial curve, poor fit].
In the case of `COc1ccc(-c2nc(CN3CCC(C(=O)N4CCc5ccccc54)CC3)c(C)o2)cc1OC`, the AC50 under setting [1] was 29.1 µM [falling, single point].
Consider `O=C(CSc1nnc(NC(=O)C2CCC2)s1)Nc1ccccc1Br`, for which, under setting [1], the concentration at half-maximal activity (AC50) was 1.12 µM [rising, full curve, poor fit].
Turning to `Cc1ccc(NC(=S)NCc2ccccc2Cl)c(C)c1`, the half-maximal activity concentration (AC50) under setting [1] was 9.2 µM [rising, partial curve].
Same read-out and setting: the figure for `CCNc1nc(C23CC4CC(CC(C4)C2)C3)cs1` is 14.1 µM [rising, single point].
Same read-out and setting: the figure for `CCOC(=O)[C@H]1[C@H]2COc3ccc(Cl)cc3[C@@H]2N2C(=O)c3cc(Br)ccc3NC(=O)[C@@]12C` is 29.1 µM [falling, single point]; for `COc1ccc(-c2csc(N(CCCN(C)C)C(=O)c3ccccc3F)n2)cc1` it is 15.8 µM [falling, single point].
Regarding `COC(=O)CNS(=O)(=O)c1ccc(Cc2ccc(S(=O)(=O)NCC(=O)OC)cc2)cc1`, the AC50 under setting [1] is 0.316 µM [falling, partial curve, poor fit].
With `COc1ccc(Cn2c(O)c(C=Nc3ccc(O)cc3)c3ccccc3c2=O)cc1`, the half-maximal activity concentration (AC50) under setting [1] is 25.9 µM [falling, partial curve, poor fit].

These data come from PubChem BioAssay AID493014 (National Center for Advancing Translational Sciences (NCATS), 2011).
